Results taken from the supplement of paper PMC10735217.
Where a name gives a salt, the structure may show the parent alone. Some of the results follow. Single values are uncertain here, since repeats match poorly.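 Human kidney-derived cells stably carry a construct in which eight TEAD-binding elements drive luciferase, measured by luminescence in a drug-repurposing library screen. A hit is any compound whose signal exceeds the plate mean by more than five robust Z scores.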

Tested on: HEK293A TEAD-LUC reporter
Experiment: TEAD-luciferase reporter activity (YAP activation), robust Z score vs plate; higher = stronger YAP/TEAD activation
Conditions: 24 h

SMILES	TEAD-luciferase reporter activity (compound concentration: 200 nM)	TEAD-luciferase reporter activity (compound concentration: 2 uM)	TEAD-luciferase reporter activity (compound concentration: 10 uM)
O=C(Nc1cc(C(F)(F)F)cc(C(F)(F)F)c1)Nc1cc(Br)ccc1-c1nn[nH]n1	inactive: -1.35	inactive: -0.319	inactive: 3.69
Nc1nc(Nc2ccc3c(c2)CC[C@@H](N2CCCC2)CC3)nn1-c1cc2c(nn1)-c1ccccc1CCC2	inactive: -1.43	inactive: -1.26	inactive: 1.52
Cc1cc(NS(=O)(=O)c2ccc(C(C)(C)C)c(F)c2)n(-c2ccc(N)c3ncccc23)n1	inactive: -0.81	inactive: -0.139	inactive: -0.552
O=C(Nc1ccc(Cl)cn1)[C@H]1CN(CC(F)F)C[C@@H]1C(=O)Nc1ccc(-n2ccccc2=O)cc1F	inactive: -0.325	inactive: -0.306	inactive: -0.0372
CC(=O)CC(C)(C)c1c(O)c2ccccc2oc1=O	inactive: 2.9	inactive: -1.39	inactive: -0.64
COc1cc2cc(c1Cl)N(C)C(=O)C[C@H](OC(=O)[C@H](C)N(C)C(C)=O)[C@]1(C)O[C@H]1[C@H](C)[C@@H]1C[C@@](O)(NC(=O)O1)[C@H](OC)/C=C\C=C(\C)C2	inactive: 2.77	inactive: 3.99	active: 5.13
COc1cc(-c2cc(=O)c3cc(OCC(=O)O)ccc3o2)cc(OC)c1OC	inactive: -0.209	inactive: -1.74	inactive: -1.25
CN(C)CCNc1ccc2c3c(nn2CCNCCO)-c2cnccc2C(=O)c13	inactive: -1.3	inactive: 0.723	inactive: -1.88
Cc1nc2c([nH]1)-c1ccccc1N(C(=O)c1ccc(NC(=O)c3ccccc3-c3ccccc3)cc1)CC2 [conivaptan hydrochloride]	inactive: -0.152	inactive: -0.196	inactive: -0.592
CCCCNC(=O)NC1CCN(c2ncnc3cc(OC)c(OC)cc23)CC1	inactive: -0.744	inactive: -0.884	inactive: -0.15
Cc1nc(-c2ccc(OCCCCCOc3ccc(C(=N)N)cc3)cc2)c(C(C)C)s1	inactive: -1.07	inactive: 0.529	inactive: 1.62
CC(=O)N1CCN(c2ccc(C=O)cc2)C(=O)C1	inactive: -3.48		active: 5.4
CC[C@@H]1C(=O)SC[C@@H]1Cc1cncn1C	inactive: 1.25	inactive: -0.459	inactive: -0.663
COc1ccc(OC2CN(C(=O)c3ccc4c(c3)OCO4)C2)cc1	inactive: -0.485		active: 35.2
CC(=N)N1CCC(Oc2ccc(N(CCC(=O)O)C(=O)c3ccc4ccc(C(=N)N)cc4c3)cc2)CC1	inactive: -0.92		inactive: -0.107
Cc1cc(-c2nncc3c(C(C)(C)C)c(OCc4ncnn4C)nn23)no1	inactive: -1.56	inactive: -0.433	inactive: 1.85
CCc1nc2c(n1Cc1ccc(-c3ccccc3-c3nn[nH]n3)cc1)/C(=C/C(=O)O)CCCC2	inactive: 0.154	inactive: -0.579	inactive: 0.122
CCCCCCCCCCCOC(=O)C[C@H](C[N+](C)(C)C)OC(=O)CC(C)C	inactive: 0.381	inactive: 0.19	inactive: -1.38
CN(C)CCOC(C)(c1ccccc1)c1ccc(Br)cc1 (centres undefined)	inactive: -1.68	inactive: 0.36	inactive: 0.392
CC[C@H]1OC(=O)C[C@@H](OC(C)=O)[C@H](C)[C@@H](O[C@@H]2O[C@H](C)[C@@H](O[C@H]3C[C@@](C)(O)[C@@H](OC(=O)CC(C)C)[C@H](C)O3)[C@H](N(C)C)[C@H]2O)[C@@H](CC=O)C[C@@H](C)C(=O)/C=C/C(C)=C/[C@@H]1CO[C@@H]1O[C@H](C)[C@@H](O)[C@@H](OC)[C@H]1OC [Tylvalosin]	inactive: 0.0551	inactive: -0.541	inactive: -1.46
O=C(Nc1ccc(Cl)cc1)C1CCCN(C(=O)c2cccc(-c3ccco3)c2)C1 (centres undefined)	inactive: -0.564	inactive: 0.517	inactive: -0.338
CC(=O)N1CCC(CCC(=O)c2cc3c4c(c2)CCN4C(=O)CC3)CC1	inactive: 0.182	inactive: -0.471	inactive: -1.2
Cc1nc2ccccc2n1Cc1ccc(Cl)cc1	inactive: -0.23	inactive: -1.34	active: 6.83
Cc1cccc(C)c1NC(=O)c1cccnc1O	inactive: 0.921	inactive: -0.67	inactive: -1.25
CC(C)(C)C(=O)N1CCN(CC(O)COc2ccccc2)CC1 (centres undefined)	inactive: -0.811	inactive: -0.959	inactive: 0.88
O=c1ccn(C2OC(COP(=O)([O-])OP(=O)([O-])OP(=O)([O-])OP(=O)([O-])OCC3OC(n4ccc(=O)[nH]c4=O)[C@H](O)[C@@H]3O)[C@@H](O)[C@H]2O)c(=O)[nH]1 (some centres undefined) [Diquafosol]	inactive: -0.79	inactive: -1.1	inactive: 1.6

Already shown: entries from further up.
SMILES	TEAD-luciferase reporter activity (compound concentration: 200 nM)	TEAD-luciferase reporter activity (compound concentration: 2 uM)	TEAD-luciferase reporter activity (compound concentration: 10 uM)
COc1ccc(OC2CN(C(=O)c3ccc4c(c3)OCO4)C2)cc1	inactive: -0.485		active: 35.2
CC(=N)N1CCC(Oc2ccc(N(CCC(=O)O)C(=O)c3ccc4ccc(C(=N)N)cc4c3)cc2)CC1	inactive: -0.92		inactive: -0.107
Cc1cc(-c2nncc3c(C(C)(C)C)c(OCc4ncnn4C)nn23)no1	inactive: -1.56	inactive: -0.433	inactive: 1.85
CCc1nc2c(n1Cc1ccc(-c3ccccc3-c3nn[nH]n3)cc1)/C(=C/C(=O)O)CCCC2	inactive: 0.154	inactive: -0.579	inactive: 0.122
CCCCCCCCCCCOC(=O)C[C@H](C[N+](C)(C)C)OC(=O)CC(C)C	inactive: 0.381	inactive: 0.19	inactive: -1.38
CN(C)CCOC(C)(c1ccccc1)c1ccc(Br)cc1 (centres undefined)	inactive: -1.68	inactive: 0.36	inactive: 0.392
CC[C@H]1OC(=O)C[C@@H](OC(C)=O)[C@H](C)[C@@H](O[C@@H]2O[C@H](C)[C@@H](O[C@H]3C[C@@](C)(O)[C@@H](OC(=O)CC(C)C)[C@H](C)O3)[C@H](N(C)C)[C@H]2O)[C@@H](CC=O)C[C@@H](C)C(=O)/C=C/C(C)=C/[C@@H]1CO[C@@H]1O[C@H](C)[C@@H](O)[C@@H](OC)[C@H]1OC [Tylvalosin]	inactive: 0.0551	inactive: -0.541	inactive: -1.46
O=C(Nc1ccc(Cl)cc1)C1CCCN(C(=O)c2cccc(-c3ccco3)c2)C1 (centres undefined)	inactive: -0.564	inactive: 0.517	inactive: -0.338
CC(=O)N1CCC(CCC(=O)c2cc3c4c(c2)CCN4C(=O)CC3)CC1	inactive: 0.182	inactive: -0.471	inactive: -1.2
Cc1nc2ccccc2n1Cc1ccc(Cl)cc1	inactive: -0.23	inactive: -1.34	active: 6.83
Cc1cccc(C)c1NC(=O)c1cccnc1O	inactive: 0.921	inactive: -0.67	inactive: -1.25
CC(C)(C)C(=O)N1CCN(CC(O)COc2ccccc2)CC1 (centres undefined)	inactive: -0.811	inactive: -0.959	inactive: 0.88
O=c1ccn(C2OC(COP(=O)([O-])OP(=O)([O-])OP(=O)([O-])OP(=O)([O-])OCC3OC(n4ccc(=O)[nH]c4=O)[C@H](O)[C@@H]3O)[C@@H](O)[C@H]2O)c(=O)[nH]1 (some centres undefined) [Diquafosol]	inactive: -0.79	inactive: -1.1	inactive: 1.6

More entries

SMILES	TEAD-luciferase reporter activity (compound concentration: 200 nM)	TEAD-luciferase reporter activity (compound concentration: 2 uM)	TEAD-luciferase reporter activity (compound concentration: 10 uM)
CN1C(C)(C)CCCC1(C)C	inactive: -0.532	inactive: -1.63	inactive: 2.87
O=C(c1ccc(Cl)cc1)N1CCC(N2Cc3ccccc3C2=O)CC1	inactive: 0.132		inactive: 2.64
CCOc1ccc2[nH]cc(C(=O)NCc3ccccc3)c(=O)c2n1	inactive: 0.265	inactive: -0.538	inactive: 1.08
Cc1cc(C2CCCCC2)n(O)c(=O)c1 [ciclopirox olamine]	inactive: -0.683		inactive: -2.03
C#CC1(O)CCC2C3CCC4=Cc5oncc5CC4(C)C3CCC21C (centres undefined) [danazol]	inactive: -1.23	inactive: -0.872	inactive: -0.0266
CN(C)c1ccc(C(=C2C=CC(=[N+](C)C)C=C2)c2ccc(N(C)C)cc2)cc1 [Gentian violet]		inactive: 0.747	
CN(C)c1ccc(C(=C2C=CC(=[N+](C)C)C=C2)c2ccc(N(C)C)cc2)cc1	inactive: 2.85		inactive: 1.93
CN(C)CCOCC(=O)N[C@]12C[C@H]3C[C@H](C[C@H](C3)C1)C2	inactive: -1.36	inactive: -0.495	inactive: 1.48
CC[N+]1(C)CCC(OC(=O)C(c2noc3ccccc23)N2CCCCCC2)CC1 (centres undefined) [Beperidium iodide]	inactive: -0.103	inactive: -0.364	inactive: -0.998
C=C[C@]1(C)CC[C@@H](C(=C)C)C[C@@H]1C(=C)C [Elemene]	inactive: -1.8	inactive: -2	inactive: -0.157
Cc1cc(C)cc(-c2ccc(CN3CCCC(NC(=O)c4cccc(Cl)c4)C3)cc2)c1 (centres undefined)	inactive: -0.573		inactive: 2.47
N#C[C@@H]1CCCN1C(=O)CN[C@H]1CC[C@H](C(=O)N2CCOCC2)CC1	inactive: 0.0681	inactive: -1.14	inactive: -0.801
Cc1oc2nc3c(c(NC(=O)CN4CCCC4=O)c2c1C)CCCC3 [coluracetam]	inactive: -2.21	inactive: -0.504	inactive: -0.395
C=C=CCNCCCCNCC=C=C	inactive: 2.95	inactive: 3.29	inactive: 2.03
CN(C)C1=NCC(c2cc3ccccc3o2)C1 (centres undefined) [prifuroline]	inactive: -1.65	inactive: -1.28	inactive: 0.165
CN(C)CCCSCC(=O)C1(c2ccc(Cl)c(Cl)c2)CCC1	inactive: -1.04	inactive: 0.155	inactive: 0.772
CCCCCCCCCCCC(=O)N(C)Cc1c(-c2ccc(Cl)cc2)nc2ccccn12	inactive: 0.917	inactive: -0.11	inactive: -0.0711
Cn1c2ccc(F)cc2c2c(C(=O)N3CCCC3)cn(-c3ccccc3)c(=O)c21	inactive: -0.946	inactive: 0.1	inactive: 1.66
Nc1ncc(C#Cc2ccc(Cl)cc2)c(N[C@H]2CC[C@H](O)CC2)n1	inactive: 0.646	inactive: -1.64	inactive: -0.196
CO[C@@]1(NC(=O)CSC[C@@H](N)C(=O)O)C(=O)N2C(C(=O)O)=C(CSc3nnnn3C)CS[C@@H]21 [_:_2016-03-02: cefminox]		inactive: -0.674	
CO[C@@]1(NC(=O)CSC[C@@H](N)C(=O)O)C(=O)N2C(C(=O)O)=C(CSc3nnnn3C)CS[C@@H]21 [Cefminox Sodium Heptahydrate]	inactive: -0.886		inactive: -0.392
CC(C)C[C@H](NC(=O)[C@@H]1CCCN1)C(=O)N[C@@H](C)C(=O)N[C@@H](CCCNC(=N)N)C(=O)N[C@H](C(=O)N[C@@H](CC(C)C)C(=O)N[C@@H](CO)C(=O)N[C@H](C(=O)N[C@@H](C)C(=O)NCC(=O)N[C@@H](CC(C)C)C(=O)N1CCC[C@H]1C(=O)NCC(=O)N[C@@H](CCCCN)C(=O)N[C@@H](CCCCN)C(=O)O)C(C)C)[C@@H](C)O [Syntide-2]	inactive: -3.19	inactive: -1.17	inactive: -2.11
Cc1cccc(-c2nn3c(c2-c2ccnc4ccc(C(N)=O)cc24)CCC3)n1	inactive: 0.0791	inactive: -0.466	inactive: -1.26
CC(=O)NCCCC(=O)OC1c2ccccc2C(=O)N1c1ccc2ccc(Cl)nc2n1 (centres undefined)	inactive: -0.731	inactive: -0.208	inactive: -1.33
C1=C(c2ccccc2)C(c2ccc(OCCN3CCCCC3)cc2)Oc2ccccc21 (centres undefined)	inactive: -1.54	inactive: 1.14	inactive: 0.939
O=C(CN1CCN(Cc2ccc3c(c2)OCO3)CC1)N1c2ccccc2Sc2ccccc21 [fenoverine]	inactive: -1.46	inactive: -2.36	inactive: -1.6
